The text below walks through data of patent US6680003B2, “Chiral doping agents with variable spiral pitch induction and application thereof to a reflective color display” (Asulab S.A., priority 2000, dated 2004).

One data set in a line: HTP in a nematic. Format: physicochemical.
Data set [1] in a line: Photomodulation of the colour of display cells (UV exposure, UV-VIS spectrum). The text has this: The compound thus prepared is introduced into a test cell including a front substrate and a back substrate, these substrates being formed by glass plates, of 2.2×2.8 mm and 0.3 mm thick held by a sealing frame at a spacing of 6 μm. The cell includes an non brushed planar alignment layer, and a 1 cm square shape pixel including on each of the substrates an indium tin oxide (ITO) coating forming the electrodes which will allow the cell to switch from one state to another by applying an electric field. Once filled, the cell is exposed to UV radiation and the evolution of the UV-VIS spectrum is followed as a function of exposure time. In the experiment corresponding to the graph of FIG. 3, giving the transmission percentage as a function of wavelength, only chiral doping agent 209s has been added to the basic cholesteric material and the initial state (curve a) and the spectrum respectively after 1 minute (curve b), 3 minutes (curve c) and 10 minutes exposure (curve d) are shown. A longer exposure time no longer modifies the spectrum, curve d representing the cell spectrum photomodulated to the maximum. A displacement will then be observed reaching 160 nm from the initial spectrum, i.e. a displacement from violet blue (curve b) to orange-red (curve d), passing through green (curve c). In the experiment corresponding to the graph of FIG. 4, 3% in weight of a photoinitiator of the morpholinocetone type, commercially available from Ciba-Geigy under the reference Irgacure®369, has been added to the basic cholesteric material. This photoinitiator aims to improve polymerisation of the end chains. For the purpose of improving polymerisation and thus the fixing of a determined colour, the photoinitiator may also be replaced by a […] comonomer, such as the compound RM-82 available from Merck. It is also possible to use simultaneously, in appropriate ratios, both a photoinitiator and a comonomer. With reference now to FIG. 4, which concerns a cell whose basic cholesteric material only contains one doping agent according to the invention and a photoinitiator. […]

In turn, “2-[4′-(6-Acryloyloxyhexyloxy)-2′,5′-methylazophenyl-4-carbonyloy]-5-[4-(6-acryloyloxyhexyloxy) Benzoyl]-1,4;3,6-D-mannitol [Compound 210fs]” displayed an HTP in “HTP in a nematic” of 17 μm^−1.

In the case of “2-[4′-(6-Acryloyloxyhexyloxy)-2′.5′-methylazophenyl-4-carbonyloy]—5-[4-(6-Acryloyloxyhexyloxy)benzoyl]-1.4:3.6-D-glucitol [Compound 209sf]”, the “variation of spectrum (window)” value in data set [1] (4.1% in weight in basic cholesteric material with photoinitiator, after 5 minutes) worked out at 220 nm. This compound came in with an HTP in the data set “HTP in a nematic” of 35 μm^−1.

In the data set “HTP in a nematic”, `CCCCCCOc1ccc(/N=N/c2ccc(OC(=O)[C@H](OC(=O)c3ccc(C)cc3)[C@@H](OC(=O)c3ccc(C)cc3)C(=O)Oc3ccc(/N=N/c4ccc(OCCCCCC)cc4)cc3)cc2)cc1` [Compound 201c] returned an HTP of 20 μm^−1.

As for `C=CC(=O)OCCCCOc1ccc(/N=N/c2ccc(OC(=O)[C@H](OC(=O)c3ccc(C)cc3)[C@@H](OC(=O)c3ccc(C)cc3)C(=O)Oc3ccc(/N=N/c4ccc(OCCCCOC(=O)C=C)cc4)cc3)cc2)cc1` [Compound 201e, 2,3-Bis[di-4, 4′ (4-acryloyloxybutyloxy)azophenyl-carbonyloy]-di-O, O′-p-toluyl-L-tartrate], the HTP in “HTP in a nematic” turned out to be 19 μm^−1.

In “HTP in a nematic”, `CCCCCCOc1ccc(/N=N/c2ccc(OC(=O)[C@@H]3OC(C)(C)O[C@H]3C(=O)Oc3ccc(/N=N/c4ccc(OCCCCCC)cc4)cc3)cc2)cc1` [Compound 206c] displayed an HTP of 13 μm^−1.

As for `C=CC(=O)OCCCCOc1ccc(/N=N/c2ccc(OC(=O)[C@@H]3OC(C)(C)O[C@H]3C(=O)Oc3ccc(/N=N/c4ccc(OCCCCOC(=O)C=C)cc4)cc3)cc2)cc1` [Compound 206e], the HTP in the data set “HTP in a nematic” is 11 μm^−1.

In the case of `C=CC(=O)OCCCCCCOc1cc(C)c(N=Nc2ccc(C(=O)OC3COC4C(OC(=O)c5ccc(N=Nc6cc(C)c(OCCCCCCOC(=O)C=C)cc6C)cc5)COC34)cc2)cc1C` (stereo not shown) [Compound 209s, 2.5 Bis[4′-(6-acryloyloxyhexyloxy)-2.5′-methylazophenyl-4-carbonyloyl]-1.4;3.6-dianhydro-D.glucitol], the “displacement from the initial spectrum” value in data set [1] (3.3% in basic cholesteric material (E48), no photoinitiator, 10 minutes UV exposure (photomodulated to the maximum), FIG. 3) was determined as 160 nm. Moreover, the “variation between the initial spectrum and the spectrum of the cell photomodulated to the maximum” value in data set [1] (basic cholesteric material with 3% in weight photoinitiator Irgacure 369, 18 minutes exposure, FIG. 4) was found to be 190 nm. The compound also showed an HTP in “HTP in a nematic” of 35 μm^−1.
